Results from article PMC8705818, “Experimental Characterization of the Interaction between the N-Terminal SH3 Domain of Crkl and C3G” (International Journal of Molecular Sciences, 2021).

Columns and labels:
[1] = target: N-terminal SH3 domain of Crkl, wild type; assay: stopped-flow kinetics (FRET, Trp to dansyl); ionic strength series: 0.5 µM dansyl peptide mixed with 1-5 µM N-SH3; koff from displacement with excess nondansylated peptide; KD = koff/kon; Hepes 50 mM pH 7.0, 0 M NaCl, 10 °C; both purified
[2] = target: N-SH3 domain of Crkl, D141A variant; assay: stopped-flow displacement kinetics; preincubated complex of D141A N-SH3 (2 µM) and dansyl-C3G (10 µM) mixed with excess nondansylated C3G (50 µM); Hepes 50 mM pH 7.0 with 20% w/v sucrose; both purified
[3] = target: N-SH3 domain of Crkl, E140A variant; assay: stopped-flow kinetics (FRET, Trp to dansyl); variants, ionic strength series: 0.5 µM dansyl peptide mixed with 2.0-4.5 µM N-SH3 variant; KD = koff/kon; 50 mM Hepes pH 7.5, 0 M NaCl, 10 °C; both purified
[4] = target: N-SH3 domain of Crkl, D138A variant; assay: as above

Measured: binding

VVDNSPPPALPPKKRQSAPS [nondansylated C3G_(277–296) peptide]
binds: all assays above

No constants are given. Whether binding was seen depends on the method and setting. Binding can be weak; no strength is given.
